“Also recorded” adds a separate entry of the source. At least one compound was matched to its structure with a doubt left.
How the values were obtained:
hepatic RNA of LMB = experiment: LMB gene array (132 genes): hepatic gene expression after IP injection; type: in vivo, largemouth bass (LMB); details: male LMB liver, two-fold cutoff vs control
SSAT = details: in the pig (Green et al., Biol. Reprod. 59:1251-1258, 1998); cited from earlier work
[1] = 48 h after single IP E2 2.5 mg/kg, 2.5 mg/kg
[2] = 48 h after single IP dose: E2 2.5 mg/kg or 4-NP 50 mg/kg
[3] = 48 h after single IP dose: E2 2.5 mg/kg, 4-NP 50 mg/kg or p,p′-DDE 100 mg/kg

Question: For C[C@]12CC[C@@H]3c4ccc(O)cc4CC[C@H]3[C@@H]1CC[C@@H]2O [E2, estradiol], which “LMB132-1 integrin beta expression” value (hepatic RNA of LMB; 48 h after single IP E2 2.5 mg/kg) is on record?
Answer: Its value is “up-reg E2”.

Question: And the “LMB23-1 (clone 23-1) expression” value (hepatic RNA of LMB; [1])?
Answer: Its value is “up-regulated; also recorded: Up-reg E2”.

Question: What about the “LMB24-1 (clone 24-1) expression” value (hepatic RNA of LMB; [1]) of the same molecule?
Answer: The value was “up-regulated; also recorded: Up-reg E2,”.

Question: What about the “LMB34-1 (clone 34-1) expression” value (hepatic RNA of LMB; [1]) of the same molecule?
Answer: Its value is “up-regulated; also recorded: up-reg E2”.

Question: What about the “LMB53-1 (clone 53-1) expression” value (hepatic RNA of LMB; [1]) of the same molecule?
Answer: Its value is “down-regulated; also recorded: Down-reg. E2;”.

Question: What about the “LMB101-1 (clone 101-1) expression” value (hepatic RNA of LMB; [1]) of the same molecule?
Answer: The value was “up-regulated; also recorded: Up-reg”.

Question: What about the “LMB116-1 aldose reductase expression” value (hepatic RNA of LMB; [1]) of the same molecule?
Answer: Its value is “up-regulated; also recorded: up-reg E2”.

Question: What about the “LMB135 protein disulfide isomerase expression” value (hepatic RNA of LMB; [1]) of the same molecule?
Answer: The value was “up-regulated; also recorded: up-reg E2”.

Question: What about the “LMB136-1 protein disulfide isomerase like (clone 136-1) expression” value (hepatic RNA of LMB; [1]) of the same molecule?
Answer: The value was “up-regulated; also recorded: up-reg E2”.

Question: And the “LMB5 vitellogenin-2A expression” value (hepatic RNA of LMB; [2])?
Answer: The value was “Up reg E2;”.

Question: And the “LMB92-1 (unidentified clone 92-1) expression” value (hepatic RNA of LMB; [2])?
Answer: The value was “up-regulated; also recorded: up-reg E2;”.

Question: And the LMB94-1 transferrin expression (hepatic RNA of LMB; [2])?
Answer: The LMB94-1 transferrin expression was “down-regulated; also recorded: Down-reg”.

Question: And the “LMB112-1 cathepsin (Aspartic protease) expression” value (hepatic RNA of LMB; [2])?
Answer: The value was “up-regulated”.

Question: And the “LMB141 vitellogenin-3 expression” value (hepatic RNA of LMB; [2])?
Answer: The value was “up reg E2; NP,”.

Question: What about the “LMB83 vitellogenin-2 (Vtg 2) expression” value (hepatic RNA of LMB; [3]) of the same molecule?
Answer: Its value is “up-reg E2;”.

Question: What about the “LMB87 vitellogenin-1 (Vtg 1) expression” value (hepatic RNA of LMB; [3]) of the same molecule?
Answer: The value was “up-reg E2;”.

Question: And the “LMB97 choriogenin-3 expression” value (hepatic RNA of LMB; [3])?
Answer: The value was “up-regulated; also recorded: Up-reg E2;”.

Question: And the “LMB108-1 choriogenin-2 expression” value (hepatic RNA of LMB; [3])?
Answer: Its value is “up-regulated; also recorded: Up-reg E2; NP;”.

Question: And the “SSAT gene, effect of estradiol” value (SSAT)?
Answer: The value was “unaffected”.

— patent publication US20040166509A1, “Detecting hormonally active compounds” (priority 2002, published 2004)
